{"source": "PubChem BioAssay AID743121 – NCATS, 2013", "test": "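Genes whose silencing strengthens cell killing by camptothecin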 (primary screen)", "system": "MDA-MB-231 cells, a human breast cancer line", "reagents": "single siRNA against human genes, 20 nM siRNA (0.8 pmol per well)", "timing": "120 h (drug added 48 h after transfection, read 72 h later)", "challenge": "camptothecin 20 nM (about EC30) for 72 h; vehicle 0.1% DMSO in parallel plates", "measurement": "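Cell viability by ATP luminescence (CellTiter-Glo) as % of non-targeting siRNA wells, and the log2 ratio of viability without drug over viability with camptothecin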", "scale": "log2 vehicle/camptothecin viability: higher = stronger sensitisation to camptothecin; viability with camptothecin: higher = more viable cells", "units": "viability with camptothecin in % of control", "hit rule": "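Each gene scored by redundant siRNA activity (RSA) over its individual siRNA ratios; a gene is called active at p < 0.001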", "note": "The deposit covers about 26,000 reagents; below is a part drawn at random. Over the whole deposit, 167 (0.63%) got an active call. 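Calls are per gene from RSA p-values that are not deposited; an individual active-marked siRNA can sensitise only weakly.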 Reagents against one gene are numbered here. Further read-outs or replicates are left out here. No sequences are given here."}
{"gene symbol": "LTF", "reagent no.": 1, "log2 vehicle/camptothecin viability": -0.0761, "viability with camptothecin": 59.3, "call": "inactive"}
{"gene symbol": "LTF", "reagent no.": 2, "log2 vehicle/camptothecin viability": -0.154, "viability with camptothecin": 104, "call": "inactive"}
{"gene symbol": "LTF", "reagent no.": 3, "log2 vehicle/camptothecin viability": -0.34, "viability with camptothecin": 61.3, "call": "inactive"}
{"gene symbol": "LTF", "reagent no.": 4, "log2 vehicle/camptothecin viability": 0.256, "viability with camptothecin": 75.5, "call": "inactive"}
{"gene symbol": "CUL5", "reagent no.": 1, "log2 vehicle/camptothecin viability": 0.241, "viability with camptothecin": 70.6, "call": "inactive"}
{"gene symbol": "CUL5", "reagent no.": 2, "log2 vehicle/camptothecin viability": -0.625, "viability with camptothecin": 80.9, "call": "inactive"}
{"gene symbol": "CUL5", "reagent no.": 3, "log2 vehicle/camptothecin viability": 0.114, "viability with camptothecin": 103, "call": "inactive"}
{"gene symbol": "CUL5", "reagent no.": 4, "log2 vehicle/camptothecin viability": -0.341, "viability with camptothecin": 58, "call": "inactive"}
{"gene symbol": "NLGN4X", "reagent no.": 1, "log2 vehicle/camptothecin viability": 0.00289, "viability with camptothecin": 105, "call": "inactive"}
{"gene symbol": "NLGN4X", "reagent no.": 2, "log2 vehicle/camptothecin viability": -0.0925, "viability with camptothecin": 101, "call": "inactive"}
{"gene symbol": "NLGN4X", "reagent no.": 3, "log2 vehicle/camptothecin viability": 0.122, "viability with camptothecin": 40, "call": "inactive"}
{"gene symbol": "MOCS2", "reagent no.": 1, "log2 vehicle/camptothecin viability": -0.478, "viability with camptothecin": 75.6, "call": "inactive"}
{"gene symbol": "MOCS2", "reagent no.": 2, "log2 vehicle/camptothecin viability": -0.177, "viability with camptothecin": 110, "call": "inactive"}
{"gene symbol": "MOCS2", "reagent no.": 3, "log2 vehicle/camptothecin viability": -0.334, "viability with camptothecin": 63, "call": "inactive"}
{"gene symbol": "MOCS2", "reagent no.": 4, "log2 vehicle/camptothecin viability": -0.461, "viability with camptothecin": 108, "call": "inactive"}
{"gene symbol": "CTSZ", "reagent no.": 1, "log2 vehicle/camptothecin viability": -0.0426, "viability with camptothecin": 87.3, "call": "inactive"}
{"gene symbol": "CTSZ", "reagent no.": 2, "log2 vehicle/camptothecin viability": -0.314, "viability with camptothecin": 96.4, "call": "inactive"}
{"gene symbol": "CTSZ", "reagent no.": 3, "log2 vehicle/camptothecin viability": -0.358, "viability with camptothecin": 63.9, "call": "inactive"}
{"gene symbol": "CTSZ", "reagent no.": 4, "log2 vehicle/camptothecin viability": 0.0859, "viability with camptothecin": 37.1, "call": "inactive"}

The list goes on (4 carried over from the part before).
{"gene symbol": "CTSZ", "reagent no.": 1, "log2 vehicle/camptothecin viability": -0.0426, "viability with camptothecin": 87.3, "call": "inactive"}
{"gene symbol": "CTSZ", "reagent no.": 2, "log2 vehicle/camptothecin viability": -0.314, "viability with camptothecin": 96.4, "call": "inactive"}
{"gene symbol": "CTSZ", "reagent no.": 3, "log2 vehicle/camptothecin viability": -0.358, "viability with camptothecin": 63.9, "call": "inactive"}
{"gene symbol": "CTSZ", "reagent no.": 4, "log2 vehicle/camptothecin viability": 0.0859, "viability with camptothecin": 37.1, "call": "inactive"}
{"gene symbol": "P4HA2", "reagent no.": 1, "log2 vehicle/camptothecin viability": 0.286, "viability with camptothecin": 53.1, "call": "inactive"}
{"gene symbol": "P4HA2", "reagent no.": 2, "log2 vehicle/camptothecin viability": -0.746, "viability with camptothecin": 27.7, "call": "inactive"}
{"gene symbol": "P4HA2", "reagent no.": 3, "log2 vehicle/camptothecin viability": -0.188, "viability with camptothecin": 99.9, "call": "inactive"}
{"gene symbol": "SELPLG", "reagent no.": 1, "log2 vehicle/camptothecin viability": -0.401, "viability with camptothecin": 60.4, "call": "inactive"}
{"gene symbol": "SELPLG", "reagent no.": 2, "log2 vehicle/camptothecin viability": 0.617, "viability with camptothecin": 60.5, "call": "inactive"}
{"gene symbol": "SELPLG", "reagent no.": 3, "log2 vehicle/camptothecin viability": -0.00883, "viability with camptothecin": 82.1, "call": "inactive"}
{"gene symbol": "CDKL2", "reagent no.": 1, "log2 vehicle/camptothecin viability": 0.0439, "viability with camptothecin": 77.2, "call": "inactive"}
{"gene symbol": "CDKL2", "reagent no.": 2, "log2 vehicle/camptothecin viability": -0.313, "viability with camptothecin": 136, "call": "inactive"}
{"gene symbol": "CDKL2", "reagent no.": 3, "log2 vehicle/camptothecin viability": 0.363, "viability with camptothecin": 67.1, "call": "inactive"}
{"gene symbol": "CDKL2", "reagent no.": 4, "log2 vehicle/camptothecin viability": -0.0493, "viability with camptothecin": 117, "call": "inactive"}
{"gene symbol": "IAPP", "reagent no.": 1, "log2 vehicle/camptothecin viability": -0.192, "viability with camptothecin": 85.7, "call": "inactive"}
{"gene symbol": "IAPP", "reagent no.": 2, "log2 vehicle/camptothecin viability": 0.11, "viability with camptothecin": 79.1, "call": "inactive"}
{"gene symbol": "IAPP", "reagent no.": 3, "log2 vehicle/camptothecin viability": -0.647, "viability with camptothecin": 59.5, "call": "inactive"}
{"gene symbol": "SMARCAD1", "reagent no.": 1, "log2 vehicle/camptothecin viability": -0.226, "viability with camptothecin": 115, "call": "inactive"}
{"gene symbol": "SMARCAD1", "reagent no.": 2, "log2 vehicle/camptothecin viability": -0.386, "viability with camptothecin": 94.4, "call": "inactive"}
{"gene symbol": "SMARCAD1", "reagent no.": 3, "log2 vehicle/camptothecin viability": -0.231, "viability with camptothecin": 127, "call": "inactive"}
{"gene symbol": "SMARCAD1", "reagent no.": 4, "log2 vehicle/camptothecin viability": -0.242, "viability with camptothecin": 51.2, "call": "inactive"}
